# According to US9012655B2, “Antimicrobial/adjuvant compounds and methods” (Denouamed, Inc., priority 2011, dated 2015):
# Some entries share one result that the patent states for a list of compounds.
# Test system: Ps. aeruginosa
# Test: Combination MICs for antibiotic adjuvant potential
# Assay type: cell-based
# Settings: compound at 60 μM
# Protocol: Susceptibilities to the compounds were determined using the National Committee for Clinical Laboratory Standards (NCCLS) M7-A6 broth microdilution method. Cation-adjusted Mueller-Hinton broth (Ca^2+, 25 μg/mL; Mg^2+, 12.5 μg/mL) microdilution panels were prepared to contain antimicrobial doubling dilution concentrations of an appropriate range. DMSO (dimethylsulfoxide) controls were incorporated into the panel to mimic the quantity of DMSO used in dissolving some of the compounds at the higher concentrations. Each final panel well volume was 100 μL with a bacterial inoculum of 5×10^5 CFU (colony forming units)/mL of the relevant bacterium. Panels were read following 16 to 20 h of incubation at 35 degrees Celsius in ambient air. The MIC (minimum inhibitory concentration) was defined as the lowest concentration of antimicrobial inhibiting visible growth.
# Generally following the procedure of Example 9, MICs of ampicillin, erythromycin, and azithromycin were determined against Ps. aeruginosa. Parallel to this effort, solutions were prepared which were identical. […] Compounds were determined to be antibiotic adjuvants if the mixture produced a lower MIC than that of the antibiotic agent alone.
compound,measurement,value
"Cc1ccc(Cl)cc1-c1cc(C(=O)O)sc1-c1cc(Cl)ccc1C [DNM0501, 4,5-Bis(5-chloro-2-methylphenyl)thiophene-2-carboxylic acid]",fold lower MIC for ampicillin,up to 250 fold
same,fold lower MIC for erythromycin,up to 60 fold
